Experimental data taken from publication PMC7819943, “Rice protein-binding microarrays: a tool to detect cis-acting elements near promoter regions in rice”.
This is one part of the list.

Chains of the proteins cited; added tags and fusions are not shown.
UniProt Q0JBA9, entry or part of it: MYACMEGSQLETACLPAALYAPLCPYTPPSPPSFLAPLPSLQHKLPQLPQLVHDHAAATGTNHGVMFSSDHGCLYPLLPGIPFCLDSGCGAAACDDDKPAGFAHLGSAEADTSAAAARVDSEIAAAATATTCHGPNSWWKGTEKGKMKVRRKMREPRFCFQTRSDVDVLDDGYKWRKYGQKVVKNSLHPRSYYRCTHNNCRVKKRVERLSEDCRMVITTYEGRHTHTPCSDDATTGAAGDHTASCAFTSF

The sequences below were run against OsWRKY34 (Oryza sativa, UniProt Q0JBA9 1-250) (assay: protein-binding microarray (RPBM); PBS, 2% BSA, 51.3 ng/ul salmon testes DNA, 50 uM zinc acetate, 200 nM TF, 25 C, 1 h; high values mean tight binding). Conditions: protein: recombinant; tags: N-terminal polyhistidine and DsRed monomer fusion (pET32a); label: CyDye5-dUTP incorporated in the synthesized complementary strand; 3' TTTTT single-stranded linker to array surface; dsDNA, one strand shown.
Outline: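 Binding signal is reported as fluorescence intensity per feature (arbitrary units) from an Axon 4000B scanner. Incubation used 200 nM of each Ni–NTA-purified, N-terminally polyhistidine- and DsRed-fused transcription factor from E. coli BL21-CodonPlus on a double-stranded custom Agilent array for 1 h at 25 °C, with 50 µM zinc acetate in the buffer, followed by washing.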

Sequence | binding signal
TCTTTTCTCATAAAGATAATGATTTTACCTCAGTTTCCGTCGGAGTCACCTAGTGCAG | 9380 fluorescence intensity (a.u.)
AAACTCATTATCTCACATACAAGTCAAACATGGCTGTAATCGGAGTCACCTAGTGCAG | 9490 fluorescence intensity (a.u.)
GAAACATACTTCCATTCCATGGAGATTACAGGCCTGAATACGGAGTCACCTAGTGCAG | 8230 fluorescence intensity (a.u.)
TGTTATATGAGTATGTTTTCGCCGGGTGTTTTATGAGTATCGGAGTCACCTAGTGCAG | 12000 fluorescence intensity (a.u.)
CTTGGATTAAGGCGATACCTCTTTTTCTAATTTTTGCACTCGGAGTCACCTAGTGCAG | 9470 fluorescence intensity (a.u.)
GCACACTCTGGCCGGTCGTCAGTTCAACCACCCGCCAACTCGGAGTCACCTAGTGCAG | 8040 fluorescence intensity (a.u.)
ATATTCTGTTGCTCCTCGTGTTATCTCTGATTTTTTTCTTCGGAGTCACCTAGTGCAG | 15100 fluorescence intensity (a.u.)
GGTTTTGGACCTTTTTTTGTGCCAACCTTGCAATCTTCAACGGAGTCACCTAGTGCAG | 8720 fluorescence intensity (a.u.)
AAAATGGATGTTATATGAATGTGGTTGTATTAAATATATTCGGAGTCACCTAGTGCAG | 8660 fluorescence intensity (a.u.)
CCTCCCCACTCCGTCTCCGTGGCTCCGTGCCTTCCAAAGCCGGAGTCACCTAGTGCAG | 8490 fluorescence intensity (a.u.)
CGTCCCCGCAGCCCGCAGCGTAGGTCTCGTTTTTCTTGTCCGGAGTCACCTAGTGCAG | 8210 fluorescence intensity (a.u.)
ATCAATTTATCACCCGCTGACTCATCTTTATTGTATCTGCCGGAGTCACCTAGTGCAG | 8420 fluorescence intensity (a.u.)
CTTGGACACTATATATATCCCTCCATACCAGAGCCATAACCGGAGTCACCTAGTGCAG | 8140 fluorescence intensity (a.u.)
AATTAAATTTTTTTTCTTCTACTGCATTGCTTCAACCACTCGGAGTCACCTAGTGCAG | 8710 fluorescence intensity (a.u.)
AAAGTCCAACCGTGTAGCCCACTTTTTCCTCCATTTCTCACGGAGTCACCTAGTGCAG | 9560 fluorescence intensity (a.u.)
CCAACTGATTTCTTCAAGAGCACACATCCAAACAGCGTTCCGGAGTCACCTAGTGCAG | 8530 fluorescence intensity (a.u.)
ATCTCCACCACGTTTTCCGCACACATAATTTTCAAACTGCCGGAGTCACCTAGTGCAG | 9790 fluorescence intensity (a.u.)
TTCTATTTTCGTGACAACATTAATATTAAATCTACAGTTTCGGAGTCACCTAGTGCAG | 8730 fluorescence intensity (a.u.)
CCCGCGTCCTCTTCCCTTTCCAGCCAAACCGACGCCGATGCGGAGTCACCTAGTGCAG | 8150 fluorescence intensity (a.u.)
AAGGGTGTATTTATTGGTGCAATAGCGTTTTTGTTTGACCCGGAGTCACCTAGTGCAG | 8690 fluorescence intensity (a.u.)
AACACTTCCATTAATTCTTGATCGTTTTCTGTCCGCTTTGCGGAGTCACCTAGTGCAG | 9600 fluorescence intensity (a.u.)

At a glance, some entries already given.
Sequence | binding signal
GCACACTCTGGCCGGTCGTCAGTTCAACCACCCGCCAACTCGGAGTCACCTAGTGCAG | 8040 fluorescence intensity (a.u.)
ATATTCTGTTGCTCCTCGTGTTATCTCTGATTTTTTTCTTCGGAGTCACCTAGTGCAG | 15100 fluorescence intensity (a.u.)
GGTTTTGGACCTTTTTTTGTGCCAACCTTGCAATCTTCAACGGAGTCACCTAGTGCAG | 8720 fluorescence intensity (a.u.)
AAAATGGATGTTATATGAATGTGGTTGTATTAAATATATTCGGAGTCACCTAGTGCAG | 8660 fluorescence intensity (a.u.)
CCTCCCCACTCCGTCTCCGTGGCTCCGTGCCTTCCAAAGCCGGAGTCACCTAGTGCAG | 8490 fluorescence intensity (a.u.)
CGTCCCCGCAGCCCGCAGCGTAGGTCTCGTTTTTCTTGTCCGGAGTCACCTAGTGCAG | 8210 fluorescence intensity (a.u.)
ATCAATTTATCACCCGCTGACTCATCTTTATTGTATCTGCCGGAGTCACCTAGTGCAG | 8420 fluorescence intensity (a.u.)
CTTGGACACTATATATATCCCTCCATACCAGAGCCATAACCGGAGTCACCTAGTGCAG | 8140 fluorescence intensity (a.u.)
AATTAAATTTTTTTTCTTCTACTGCATTGCTTCAACCACTCGGAGTCACCTAGTGCAG | 8710 fluorescence intensity (a.u.)
AAAGTCCAACCGTGTAGCCCACTTTTTCCTCCATTTCTCACGGAGTCACCTAGTGCAG | 9560 fluorescence intensity (a.u.)

More entries.

Sequence | binding signal
CCTGTTGACTAGAACGATAGTCATCAACTCATCATTCTCGCGGAGTCACCTAGTGCAG | 9750 fluorescence intensity (a.u.)
TTTCAATTCTTCATCACTGATTTATTCACCAATTAATTCTCGGAGTCACCTAGTGCAG | 8520 fluorescence intensity (a.u.)
GGTAAAATATGTGCTAAAAAGTCAACGGTGTCAAACATTTCGGAGTCACCTAGTGCAG | 14400 fluorescence intensity (a.u.)
GCCTCCAACAAACTCAGGTTGTTTCAGGTCATCTTCCCAACGGAGTCACCTAGTGCAG | 8050 fluorescence intensity (a.u.)
AAGTCCACTCCTCGCATTCTTTGCTCCATGACGACGACTCCGGAGTCACCTAGTGCAG | 9570 fluorescence intensity (a.u.)
CTGTTGGTTGTGATTGTTGTGGTGGGCACGCTGTTTGAACCGGAGTCACCTAGTGCAG | 11600 fluorescence intensity (a.u.)
CATATGTGTTCAGCTTTCCTAGCTTCGACCTCTTTTATTTCGGAGTCACCTAGTGCAG | 10200 fluorescence intensity (a.u.)
CCCTACACTGTCGCGAGCGCTCTCTCTCTCTCTCTCTCTCCGGAGTCACCTAGTGCAG | 8140 fluorescence intensity (a.u.)
CACACAAACTTCCAACATTTCCGTCACATTGTTTCAATTTCGGAGTCACCTAGTGCAG | 8350 fluorescence intensity (a.u.)
ATCAGAATCGACTGGTTCCTCCTTGACTTGCACCTTTGACCGGAGTCACCTAGTGCAG | 10500 fluorescence intensity (a.u.)
ACCTTTTCCGCGTGTTGTGTCTGTTTGTTGAAGATGAATTCGGAGTCACCTAGTGCAG | 12600 fluorescence intensity (a.u.)
CACCCATGGCAATTTTGTAGGCTGCTATATCCTGACAATACGGAGTCACCTAGTGCAG | 8100 fluorescence intensity (a.u.)
AACTTTTGACTGTGGAATGCTGGAGATATCATGATCTTTTCGGAGTCACCTAGTGCAG | 8140 fluorescence intensity (a.u.)
GGTTTGATTGTTTTTTCGATTGTGTAGAATTTGATTTTTGCGGAGTCACCTAGTGCAG | 9240 fluorescence intensity (a.u.)
CCCACTGACATATGGGTCCCATTATTTTTATCTTTTTGTTCGGAGTCACCTAGTGCAG | 9030 fluorescence intensity (a.u.)
TTCTAACTTATATCTCGTTTTTCACGTACACGTTTTTTCACGGAGTCACCTAGTGCAG | 9160 fluorescence intensity (a.u.)
GCATATTTCCATTTTGTTGGTCCTTACTGAACGGCTTCCTCGGAGTCACCTAGTGCAG | 9720 fluorescence intensity (a.u.)
GCTACGTTTGTGCCACCTTGTTTGACCCTTTTTCAAGATCCGGAGTCACCTAGTGCAG | 11100 fluorescence intensity (a.u.)
CCTATTAGGGTTGGGTTTGTTCTCTATTTTATACCCATGGCGGAGTCACCTAGTGCAG | 8390 fluorescence intensity (a.u.)
TTTTCCCACATTTTGCCTTTGCTGCTTTAAAGGGCTGATACGGAGTCACCTAGTGCAG | 12200 fluorescence intensity (a.u.)
CCTTATTTGGTCGGTGTGATTCTTGCATGAGGGAGGTTATCGGAGTCACCTAGTGCAG | 11400 fluorescence intensity (a.u.)
